Patent CN109096396A
Results are given in words; binding and its absence hold for the method and conditions named. Some entries that bind do so weakly or less than the wild type.

By UniProt entry, the sequences of proteins in these tests, tags left out.
UniProt Q9NZQ7: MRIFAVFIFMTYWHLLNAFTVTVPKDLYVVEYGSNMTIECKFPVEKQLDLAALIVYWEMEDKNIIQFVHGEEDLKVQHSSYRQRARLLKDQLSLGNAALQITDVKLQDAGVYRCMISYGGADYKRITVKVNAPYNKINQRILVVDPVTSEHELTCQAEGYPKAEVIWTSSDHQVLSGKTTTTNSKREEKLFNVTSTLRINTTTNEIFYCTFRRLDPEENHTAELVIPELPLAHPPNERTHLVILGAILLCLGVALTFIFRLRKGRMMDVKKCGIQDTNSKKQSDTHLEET

Biological target: hPD-L1(ECD)-Fc (human) (UniProt Q9NZQ7)
Assay: ELISA of crude periplasmic extract on coated antigen, anti-HA detection; positive clone = OD more than 3 times the control well

binding: binds
B1: PD-L1纳米抗体 Nb43 (VHH, not shown: small tags and cut ends)
VHH: QVQLQESGGGSVQAGGSLRLSCAASRFTASMGWFRQAPGKEREGIATVSGAASTNYADSVRGRFTISKDNAKNTLYLQINSLKPEDTAVYYCAADDDYYAFLSRGARDFRYWGQGTQVTVSS
